# Data published in patent US8222202B2 (priority 2006, dated 2012).
# How the values were obtained:
# [1] = Boc solid-phase peptide synthesis; 4-methyl-benzhydrylamine resin; DIC/HOBt (compound 1); DCC, PyBOP or DIC/HOBt (compound 4); conditions: whole synthesis, scale 0.4 mmol
# [2] = general procedure: peptide synthesis; Tentagel-S-RAM resin (compound 1); 4-methyl-benzhydrylamine resin (compound 4); DIC/HOBt (compound 1); DCC, PyBOP or DIC/HOBt (compound 4); conditions: whole synthesis, Analytical HPLC, Vydac C18, scale of the general procedure 0.5 mmol (compound 1), 0.4 mmol (compound 4)
# [3] = Fmoc solid-phase peptide synthesis; Tentagel-S-RAM; DIC/HOBt (compound 1); DCC, PyBOP or DIC/HOBt (compound 4); conditions: whole synthesis, scale 0.5 mmol, acetate
Substance,isolated yield [1],isolated mass ([1]; acetate),final HPLC purity [2],isolated mass [3]
"[Phe^2,Asn(Et)^4, Dbu^8]VT",˜10%,41 mg,100%,
"[Phe^2,Hgn^4,Orn(i-Pr)^8]VT",,,98.8%,168 mg
